Measurements taken from publication PMC9464229.
These are yes or no findings as the source states them, for the method shown. Binding seen in cells or lysates may run through a third protein. A result given as binding can be weak or reduced; the word gives no strength.

Target: Flag-YAP-ΔWW
Experiment: co-IP; tagged bait immunoprecipitated by Flag or Myc antibody from A549 cells infected with lentivirus or transfected with wild type or mutant, immunoblotted for the partners (Fig. 5D-F, Supplementary Fig. 6A)

binding: binds
B1: P130cas (endogenous) (protein, UniProt P56945 1-870)
chain: MNHLNVLAKALYDNVAESPDELSFRKGDIMTVLEQDTQGLDGWWLCSLHGRQGIVPGNRLKILVGMYDKKPAGPGPGPPATPAQPQPGLHAPAPPASQYTPMLPNTYQPQPDSVYLVPTPSKAQQGLYQVPGPSPQFQSPPAKQTSTFSKQTPHHPFPSPATDLYQVPPGPGGPAQDIYQVPPSAGMGHDIYQVPPSMDTRSWEGTKPPAKVVVPTRVGQGYVYEAAQPEQDEYDIPRHLLAPGPQDIYDVPPVRGLLPSQYGQEVYDTPPMAVKGPNGRDPLLEVYDVPPSVEKGLPPSNHHAVYDVPPSVSKDVPDGPLLREETYDVPPAFAKAKPFDPARTPLVLAAPPPDSPPAEDVYDVPPPAPDLYDVPPGLRRPGPGTLYDVPRERVLPPEVADGGVVDSGVYAVPPPAEREAPAEGKRLSASSTGSTRSSQSASSLEVAGPGREPLELEVAVEALARLQQGVSATVAHLLDLAGSAGATGSWRSPSEPQEPLVQDLQAAVAAVQSAVHELLEFARSAVGNAAHTSDRALHAKLSRQLQKMEDVHQTLVAHGQALDAGRGGSGATLEDLDRLVACSRAVPEDAKQLASFLHGNASLLFRRTKATAPGPEGGGTLHPNPTDKTSSIQSRPLPSPPKFTSQDSPDGQYENSEGGWMEDYDYVHLQGKEEFEKTQKELLEKGSITRQGKSQLELQQLKQFERLEQEVSRPIDHDLANWTPAQPLAPGRTGGLGPSDRQLLLFYLEQCEANLTTLTNAVDAFFTAVATNQPPKIFVAHSKFVILSAHKLVFIGDTLSRQAKAADVRSQVTHYSNLLCDLLRGIVATTKAAALQYPSPSAAQDMVERVKELGHSTQQFRRVLGQLAAA
